# According to PMC12548414:
# The whole screen tested about 1,600 compounds, of which about 20 (1%) showed an effect of 50% or more. The list shows a part of the results.
# Test system: T1, E. coli pLC1021 (luc-trpAt trans-translation reporter)
# T1 construct: pLC1021 luc-trpAt reporter strain
# Design: species or system Escherichia coli pLC1021; luc-trpAt non-stop luciferase reporter; luminescence rises when trans-translation is inhibited; normalized to KKL-35 and DMSO
# Conditions: reporter signal, KKL-35 = 100%; rise means trans-translation inhibition; 2 h, 20 µM
# Method in brief: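 Cells carrying the non-stop luc-trpAt reporter were exposed to 20 µM compound for 2 h at room temperature, then Bright-Glo was added and luminescence read at 560 nm after 10 min. Signals were normalised per plate to DMSO and 20 µM KKL-35 wells. Hits: activity one SD above the median; ≥2 biological repeats averaged.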
row,SMILES,% activation [%]
1,CCCCNC(=O)Nc1nnc(-c2ccc(Cl)cc2)o1 [KKL-0804],1
2,CN(C)c1ccc(NC(=O)c2ccncc2)cc1 [KKL-1365],0
3,CCOC(=O)CSc1nc(N)c(C#N)c(CC(C)C)c1C#N [KKL-1629],0
4,CCCOc1ccc(C(=O)NC(=S)Nc2ccc(C(=O)O)cc2)cc1 [KKL-1324],0
5,CCN(CC)C(=S)NC(=O)c1ccc(F)cc1 [KKL-1252],9
6,Fc1ccccc1CN(CCCn1ccnc1)CC1=Cc2ccccc2OC1 [KKL-0518],4
7,Fc1ccc2nc(Nc3nc(-c4ccccn4)cs3)sc2c1 [KKL-1679],2
8,Fc1ccccc1-c1noc(N2CCN(Cc3ccc4c(c3)OCO4)CC2)n1 [KKL-1687],0
9,CC(C(=O)Oc1cccc2cccnc12)N1C(=O)C2C3C=CC(C4CC34)C2C1=O (stereo not shown) [KKL-1477],5
10,CCCCCCCn1c(=O)c(C(=O)Nc2cnccn2)c(O)c2ccccc21 [KKL-1014],0
11,CC1CC1C(=O)N1CCC(c2nc(Nc3cccc(F)c3)cc(-c3cccnc3)n2)CC1 (stereo not shown) [KKL-0702],6
12,c1ccc(-c2nc(NCC3CCCO3)c3ccccc3n2)nc1 (stereo not shown) [KKL-0898],0
13,CSc1nccc(N2CCCC(CCC(=O)NCc3ccc(C)o3)C2)n1 (stereo not shown) [KKL-0630],0
14,CCC(=O)Oc1ccc(C(=O)Nc2cc3oc4ccccc4c3cc2OC)cc1 [KKL-1423],0
15,CCOC(=O)c1c(N=C(S)NC2CCN(Cc3ccccc3)CC2)sc(C)c1-c1ccccc1 [KKL-1549],0
16,O=C(Nc1ccc2c(c1)CN(C(=O)/C=C/c1cccs1)CC2)c1ccncc1 [KKL-0616],0
17,CC(C)(C)c1ccc(C(=O)Nc2ccc(S(=O)(=O)Nc3nccs3)cc2)cc1Br [KKL-1241],2
18,CCN(c1ccccc1)c1ccc([N+](=O)[O-])c2nonc12 [KKL-0412],0
19,O=C(COc1ccc(Cl)cc1)Nc1ccc(N2CCN(C(=O)c3ccco3)CC2)c(Cl)c1 [KKL-0863],0
20,COc1ccc2[nH]cc(CCN=C(S)Nc3ccc(Nc4ccccc4)cc3)c2c1 [KKL-0603],2
21,CCc1c(C)nc2cc(-c3cccs3)nn2c1NCc1ccccc1OC [KKL-0531],0
22,COc1ccc(C2c3[nH]c4ccccc4c3CCN2Cc2cc3ccccc3nc2O)cc1C (stereo not shown) [KKL-0644],0
23,CCOC(=O)c1cnc(-n2nc(C)cc2C)nc1Nc1ccc(OC)cc1 [KKL-0879],0
24,O=C(CSc1nnc(SCc2cccc3ccccc23)s1)Nc1ccccc1F [KKL-1454],7
25,CCOC(=O)c1c(-c2ccc(C)o2)csc1NC(=S)NC(=O)N(C)C [KKL-0563],0
26,O=[N+]([O-])c1ccc(-c2nc(C(Cl)Cl)c3ccccc3n2)cc1 [KKL-1012],5
27,CCc1ccc(Oc2nc([N+](=O)[O-])nn2C)cc1 [KKL-0611],0
28,COc1cccc(-c2ccccc2NC(=O)C2CCN(Cc3ccc(F)c(OC)c3)CC2)c1 [KKL-1172],0

# Looked up by structure from the list above, three records:
row,SMILES,% activation [%]
26,O=[N+]([O-])c1ccc(-c2nc(C(Cl)Cl)c3ccccc3n2)cc1 [KKL-1012],5
2,CN(C)c1ccc(NC(=O)c2ccncc2)cc1 [KKL-1365],0
27,CCc1ccc(Oc2nc([N+](=O)[O-])nn2C)cc1 [KKL-0611],0

# Ordered by number of heavy atoms (largest number first): 3 of the compounds above
row,SMILES,% activation [%]
14,CCC(=O)Oc1ccc(C(=O)Nc2cc3oc4ccccc4c3cc2OC)cc1 [KKL-1423],0
18,CCN(c1ccccc1)c1ccc([N+](=O)[O-])c2nonc12 [KKL-0412],0
5,CCN(CC)C(=S)NC(=O)c1ccc(F)cc1 [KKL-1252],9

# (cont.)

row,SMILES,% activation [%]
1,COC(C)(C)C#CC(=O)c1cccc2ccccc12 [KKL-0420],0
2,COc1ccc(Cc2cnc(NC(=O)c3ccccc3Cn3ccnc3)s2)cc1 [KKL-0463],6
3,Cc1ccc(C(C)C)cc1OCCCCn1ccnc1 [KKL-0429],8
4,COC(=O)CSc1cc(SCC(=O)OC)c(C#N)c(SCC(=O)OC)c1 [KKL-0452],0
5,CCC(CC)c1cc([C@H]2CN3CC[C@H]2C[C@@H]3CNCc2ccc(OC)cc2)nc(-c2ccncc2)n1 [KKL-1599],0
6,COc1cccc(C(=O)NC(=S)Nc2ccc(N3CCN(C(=O)c4cccs4)CC3)c(Cl)c2)c1 [KKL-1321],0
7,COC(=O)C(CC(C)C)NC(=O)/C=C/c1ccc(Cl)cc1 (stereo not shown) [KKL-0983],6
8,CN(Cc1ccnc(N2CCCC2)n1)Cc1cccc2ncccc12 [KKL-0680],0
9,Cc1nn(-c2ccccc2)c2c1C(c1ccc(O)c(O)c1)N1C(=N2)C(Nc2ccccc2)=Nc2ccccc21 (stereo not shown) [KKL-0996],0
10,CCN(Cc1ccccc1)c1ccc(C=NN=C(N)N)cc1 [KKL-0836],18
11,COc1cccc(-c2cc(CC3(O)CCN(Cc4ccc(SC)cc4)CC3)on2)c1 [KKL-1131],4
12,O=C(NCCC12CC3CC(CC(C3)C1)C2)c1ccc(Br)cc1 [KKL-0919],0
13,Cc1cccc(-n2cc(CNCCc3nc(C)c[nH]3)c(-c3cccc(F)c3)n2)c1 [KKL-0510],9
14,CCN(CC)CCn1c(=N)n(CC(O)COc2ccc(Cl)cc2Cl)c2ccccc21 (stereo not shown) [KKL-1256],0
15,O=C(Nc1nc(-c2ccccn2)cs1)N1CCC(Cc2ccc(F)cc2)CC1 [KKL-1842],28
16,O=C(NCc1ccco1)N1CCN(Cc2ccc3c(c2)CCO3)CC1 [KKL-1726],0
17,CC1CCN(CCN=C(S)Nc2ccc(F)cc2)CC1 [KKL-0724],0
18,CC1=Nc2c(ccc3cccnc23)C1(C)C [KKL-0451],0
19,Cc1ccc2c(C)c(C(=O)N3CCn4cnnc4C3)oc2c1 [KKL-1206],0
20,N=c1c2c(ncn1Cc1ccco1)Oc1c(ccc3ccccc13)C2c1ccccc1 (stereo not shown) [KKL-1009],0
21,O=c1c2ccccc2nc(/C=C/c2ccc([N+](=O)[O-])o2)n1-c1cccc(O)c1 [KKL-0713],0
22,CCc1ccccc1-n1c(=O)oc2ccc(Cl)cc2c1=O [KKL-0917],1
23,O=C(NCCCn1ccnc1)c1cccnc1Nc1cccc(C(F)(F)F)c1 [KKL-0554],15
24,CC(C)(C)c1cc(NCc2ccccn2)n2ncc(-c3ccc(Cl)cc3)c2n1 [KKL-1001],4
25,COc1cc(Nc2ccccc2)ccc1NS(=O)(=O)c1c(C)noc1C [KKL-1713],6
26,Clc1ccc(OCCCn2ccnc2)cc1Cl [KKL-1272],0
27,CS(=O)(=O)Cc1nc2ccccc2oc1=O [KKL-1609],0
